Measurements: the supplement of paper PMC11150407
Out of some 3,000 compounds screened, about 45 (2%) showed an effect of 50% or more. Some of the results follow.

tested on: MOLM1 and UCSD/AML1 (averaged); assay: cell viability relative to DMSO control (POC); higher = less growth inhibition; conditions: 1 µM; 72 h
Experimental: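 Primary viability screen in the 3q26 EVI1-high AML cell lines MOLM1 and UCSD/AML1, compounds at 1 uM for 72 h. ATP CellTiter-Glo read-out given as percent viable over DMSO control (POC), averaged over duplicates. This mapping covers the TimTec NDL-3000 natural derivative library, whose compounds are identified by TimTec catalogue codes (ST...).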

| SMILES | cell viability [%] |
| --- | --- |
| COc1ccc(-c2nc(CSc3nc4c(=O)[nH]cnc4n3C)c(C)o2)cc1 | 98.5 |
| COc1ccc(C(=O)Nc2ccc(CC#N)cc2)cc1OC | 102 |
| COC(=O)c1ccc(/C=N/NC(=O)c2ccc(CN3CCc4ccccc4C3)cc2)cc1 | 95.6 |
| COc1cccc(NC(=O)c2ccc(CN3CCc4ccccc4C3)cc2)c1 | 93.7 |
| C=CC(C)(O)CCC=C(C)CCC=C(C)C (mixture of isomers) | 86.4 |
| CC1(C)CC(=O)C2=C(C1)NC1=C(C(=O)CC(C)(C)C1)C2c1ccccc1OCc1ccccc1Cl | 106 |
| COc1ccc(-c2nc(CSc3nc4c(=O)[nH]c(C)nc4n3C)c(C)o2)cc1OC | 109 |
| COc1cccc2oc(-c3ccccc3)c(O)c(=O)c12 | 90.3 |
| Nc1[nH]c(=O)ncc1CO | 100 |
| Cc1c(-c2ccc(Br)cc2)c(=O)oc2ccccc12 | 92 |
| Cc1ccc(C)c(C2C(C#N)=C(N)Oc3c2oc(CO)cc3=O)c1 (stereo unspecified) | 108 |
| COc1ccc(C(=O)NCN2CCN(c3ccccc3)CC2)cc1OC | 102 |
| O=C(c1nn2c(C(F)(F)F)cc(-c3ccccc3)nc2c1Br)N1CCc2ccccc2C1 | 101 |
| COc1ccc(/C=C2\Oc3ccc(Br)cc3C2=O)cc1 | 97.7 |
| COc1ccc(NC(=O)CSc2nc3c(=O)[nH]cnc3n2C)c(OC)c1 | 85.2 |
| COc1ccc(Br)cc1-c1nc(CSc2nc3c(=O)[nH]cnc3n2C)c(C)o1 | 117 |
| Cc1ccc2[nH]c3c(c2c1)CCCC3=O | 84.8 |
| Cc1cccc(C)c1NC(=O)Cn1c(=O)cc(C(=O)N2CCc3ccccc3C2)c2ccccc21 | 97.3 |
| CCOc1ccc2oc(=O)cc(CN3CCN(C(=O)c4c(F)cccc4F)CC3)c2c1 | 94.6 |
| COC(=O)c1cn(C(=O)c2ccc3c(c2)OCO3)c2ccccc12 | 100 |
| Cc1[nH]c2ccc(OC(F)(F)F)cc2c1CCNC(=O)c1cc2ccccc2oc1=O | 96.8 |
| CCOC(=O)C1=C(c2ccccc2)NC(=S)NC1c1ccc(O)c(OC)c1 (stereo unspecified) | 97 |
| O=C(Oc1ccc2c3c(c(=O)oc2c1)CCC3)c1ccccc1 | 105 |
| COc1cc2ccccc2cc1C(=O)Nc1ccc(CN2CCOCC2)cc1 | 90.7 |
| COc1cc(C(=O)Nc2ccc(C(=O)NCc3ccccc3)cc2)cc(OC)c1OC | 87 |
| CC1(C)CC(=O)C2=C(C1)Nc1ccccc1NC2c1ccc(OCc2ccccc2F)c(Cl)c1 (stereo unspecified) | 104 |

| SMILES | cell viability [%] |
| --- | --- |
| Cc1cc(C)c2c(O)c(Cc3ccccc3)c(=O)[nH]c2c1 | 110 |
| COC(=O)C1=CN(Cc2ccc(Cl)cc2)C=C(C(=O)OC)C1c1cc(OC)c(OC)c(OC)c1 | 91 |
| Cc1ccc(-c2nc(CSc3nc4c(=O)[nH]cnc4n3-c3ccc(C)cc3)c(C)o2)cc1 | 94.7 |
| Cc1cccc(Cn2c(SCCO)nc3c2c(=O)[nH]c(=O)n3C)c1 | 98.6 |
| O=C(NCCNC(=O)c1ccc(CN2CCc3ccccc3C2)cc1)c1ccc(CN2CCc3ccccc3C2)cc1 | 97.7 |
| COc1ccc(C(OCC2OC(n3cnc4c(N)ncnc43)CC2O)(c2ccccc2)c2ccc(OC)cc2)cc1 (stereo unspecified) | 69.6 |
| O=C(Cn1c(=O)cc(C(=O)N2CCCC2)c2ccccc21)Nc1ccc(F)cc1 | 106 |
| COc1cc(C(=O)CCNc2cccc(F)c2)cc(OC)c1OC | 101 |
| CCCNC(=O)c1cc(=O)n(CC(=O)Nc2cc(Cl)ccc2C)c2ccccc12 | 85.2 |
| O=C(NC(Cc1c[nH]c2ccccc12)C(=O)Oc1ccc2c(=O)c(Oc3ccc(Cl)cc3)c(C(F)(F)F)oc2c1)OCc1ccccc1 (stereo unspecified) | 79.8 |
| Cc1ccc(-n2c(SCC(=O)Nc3cc(Cl)ccc3C)nc3c(=O)[nH]cnc32)cc1 | 102 |
| COc1cc(CNC(=O)c2ccc(C(=O)c3ccccc3)cc2)cc(OC)c1OC | 99.1 |
| CCOC(=O)C(=O)Nc1ccccc1C(=O)OCC | 94.1 |
| COC(=O)C1=C(C)NC2=C(C(=O)CC(c3ccc(Cl)cc3)C2)C1c1cc(OC)c(OC)c(OC)c1 (stereo unspecified) | 99.1 |
| Clc1ccc(-c2nc(Nc3ccc4c(c3)OCCO4)c3ccccc3n2)cc1 | 91.5 |
| COC(=O)/C=C/c1cc(S(=O)(=O)NC2CC2)ccc1OC | 116 |
| CCN(CC)c1ccc2cc(-c3ccccc3)c(=O)oc2c1 | 96.9 |
| COC(=O)c1ccc(NC(=S)N/N=C/c2cc(OC)c(OC)c(OC)c2)cc1 | 95.4 |
| COc1cc(C(=O)Nc2ccccc2C#N)cc(OC)c1OC | 109 |
| COc1ccc(C(=O)Nc2cc(Cl)cc(Cl)c2)cc1OC | 94.7 |
| COc1cc(-c2nnc(CSc3nc4ccccc4c(=O)n3Cc3ccccc3)o2)cc(OC)c1OC | 97.7 |
| CC1(C)CC(=O)C2=C(C1)Nc1ccccc1NC2c1cccc(OCc2cccc(F)c2)c1 (stereo unspecified) | 105 |
| Cc1ccc(-n2c(SCC(=O)Nc3ccccc3C(F)(F)F)nc3c(=O)[nH]cnc32)cc1 | 108 |
| CCCNC(=O)c1cc(=O)n(CC(=O)Nc2cccc(F)c2)c2ccccc12 | 82.5 |
| Cc1ccc(-c2nc(CSc3nc4c(=O)[nH]cnc4n3C)c(C)o2)cc1 | 94.6 |
| COc1cc(CNc2ccc([N+](=O)[O-])cn2)cc(OC)c1OC | 108 |

Grouped by structure, the compounds so far with an aryl methoxy group.

| SMILES | cell viability [%] |
| --- | --- |
| COc1ccc(-c2nc(CSc3nc4c(=O)[nH]cnc4n3C)c(C)o2)cc1 | 98.5 |
| COc1ccc(C(=O)Nc2ccc(CC#N)cc2)cc1OC | 102 |
| COc1cccc(NC(=O)c2ccc(CN3CCc4ccccc4C3)cc2)c1 | 93.7 |
| COc1ccc(-c2nc(CSc3nc4c(=O)[nH]c(C)nc4n3C)c(C)o2)cc1OC | 109 |
| COc1cccc2oc(-c3ccccc3)c(O)c(=O)c12 | 90.3 |
| COc1ccc(C(=O)NCN2CCN(c3ccccc3)CC2)cc1OC | 102 |
| COc1ccc(/C=C2\Oc3ccc(Br)cc3C2=O)cc1 | 97.7 |
| COc1ccc(NC(=O)CSc2nc3c(=O)[nH]cnc3n2C)c(OC)c1 | 85.2 |
| COc1ccc(Br)cc1-c1nc(CSc2nc3c(=O)[nH]cnc3n2C)c(C)o1 | 117 |
| CCOC(=O)C1=C(c2ccccc2)NC(=S)NC1c1ccc(O)c(OC)c1 (stereo unspecified) | 97 |
| COc1cc2ccccc2cc1C(=O)Nc1ccc(CN2CCOCC2)cc1 | 90.7 |
| COc1cc(C(=O)Nc2ccc(C(=O)NCc3ccccc3)cc2)cc(OC)c1OC | 87 |
| COC(=O)C1=CN(Cc2ccc(Cl)cc2)C=C(C(=O)OC)C1c1cc(OC)c(OC)c(OC)c1 | 91 |
| COc1ccc(C(OCC2OC(n3cnc4c(N)ncnc43)CC2O)(c2ccccc2)c2ccc(OC)cc2)cc1 (stereo unspecified) | 69.6 |
| COc1cc(C(=O)CCNc2cccc(F)c2)cc(OC)c1OC | 101 |
| COc1cc(CNC(=O)c2ccc(C(=O)c3ccccc3)cc2)cc(OC)c1OC | 99.1 |
| COC(=O)C1=C(C)NC2=C(C(=O)CC(c3ccc(Cl)cc3)C2)C1c1cc(OC)c(OC)c(OC)c1 (stereo unspecified) | 99.1 |
| COC(=O)/C=C/c1cc(S(=O)(=O)NC2CC2)ccc1OC | 116 |
| COC(=O)c1ccc(NC(=S)N/N=C/c2cc(OC)c(OC)c(OC)c2)cc1 | 95.4 |
| COc1cc(C(=O)Nc2ccccc2C#N)cc(OC)c1OC | 109 |
| COc1ccc(C(=O)Nc2cc(Cl)cc(Cl)c2)cc1OC | 94.7 |
| COc1cc(-c2nnc(CSc3nc4ccccc4c(=O)n3Cc3ccccc3)o2)cc(OC)c1OC | 97.7 |
| COc1cc(CNc2ccc([N+](=O)[O-])cn2)cc(OC)c1OC | 108 |

3 of the compounds above, with tabs:
SMILES	cell viability [%]
O=C(Cn1c(=O)cc(C(=O)N2CCCC2)c2ccccc21)Nc1ccc(F)cc1	106
COc1cc(C(=O)CCNc2cccc(F)c2)cc(OC)c1OC	101
CCCNC(=O)c1cc(=O)n(CC(=O)Nc2cc(Cl)ccc2C)c2ccccc12	85.2

The list continues.

| SMILES | cell viability [%] |
| --- | --- |
| CC[N+]12CCCC34CCC5(C(C(=O)OC)C3)N(C(C)=O)c3ccccc3C5(CC1)C42 (stereo unspecified) | 100 |
| COCCNC(=O)Cc1c(C)n(C(=O)c2ccc(Cl)cc2)c2ccc(OC)cc12 | 84.8 |
| COc1cc(C2Nc3ccccc3NC3=C2C(=O)CC(C)(C)C3)ccc1OCc1cccc2ccccc12 (stereo unspecified) | 109 |
| Cc1ccc2c(N)c(C(=O)N3CCC[C@H]3C(=O)O)sc2n1 | 95.3 |
| COc1cc(C(=O)N2c3ccccc3CC2C)cc(OC)c1OC (stereo unspecified) | 91.9 |
| CCOC(=O)C1=C(N)Oc2c(oc(CO)cc2=O)C1c1cc(Cl)ccc1Cl (stereo unspecified) | 95.1 |
| CCN(CC)Cc1nnn(-c2nonc2N)c1C(=O)N/N=C/c1cc(OC)c(OC)c(OC)c1 | 102 |
| CC1(C)CC(=O)C2=C(C1)Nc1ccccc1NC2c1ccc(OCc2ccc(Br)cc2)cc1 (stereo unspecified) | 108 |
| COc1c2cc(C(C)(C)C)cc1Cc1cc(C(C)(C)C)cc(c1O)Cc1cc(C(C)(C)C)cc(c1OC)Cc1cc(C(C)(C)C)cc(c1O)C2 | 103 |
| O=C(Cn1c(=O)cc(C(=O)N2CCCCC2)c2ccccc21)Nc1ccc2c(c1)OCO2 | 107 |
| Cc1cc(Oc2coc3cc(OC(=O)c4ccco4)ccc3c2=O)cc(C)c1Cl | 101 |
| CC(=O)NC(CCCN=C(N)N)C(=O)O (stereo unspecified) | 92.7 |
| COc1cc(OC)cc(C(=O)OCc2ccc(F)cc2)c1 | 100 |
| Cc1cc(C(=O)O)nc2ccccc12 | 97.7 |
| O=C(/C=C/c1cccc(Cl)c1)c1ccc(-c2ccccc2)cc1 | 96.4 |
| COc1ccc(C)cc1NC(=O)Cn1c(=O)cc(C(=O)N2CCc3ccccc3C2)c2ccccc21 | 99 |
| COc1ccc(C(=O)NCCc2c(C)[nH]c3c(C)cccc23)cc1OC | 98.6 |
| COc1ccc(C(=O)CCNc2ccc(F)cc2)cc1OC | 96.3 |
| O=C(C1CC1)N1CCN(c2nc(NC3CCCC3)c3ccccc3n2)CC1 | 86.7 |
| O=C(CCc1cccc(F)c1)NC(CO)C(O)c1ccccc1 (stereo unspecified) | 110 |
| Cc1ccc2nc(NC(=O)CN3CCc4ccccc4C3)sc2c1 | 99 |
| CCOc1cc(C2C(C(=O)OC)=C(C)NC3=C2C(=O)CC(c2ccccc2)C3)cc(Br)c1O (stereo unspecified) | 105 |
| CCOc1ccc(NC(=O)C2c3ccccc3Oc3ccccc32)cc1 | 57.8 |
| O=C(c1ccccc1Cl)N1CCc2c([nH]c3ccccc23)C1c1ccc([N+](=O)[O-])cc1 (stereo unspecified) | 103 |
| O=c1[nH]c2ccc(Cl)cc2c(-c2ccccc2)c1Sc1nc2ccccc2[nH]1 | 101 |
| COc1ccc2c(=O)c(-c3ccc(OC)c(OC)c3)coc2c1 | 97 |

| SMILES | cell viability [%] |
| --- | --- |
| O=C(/C=C/c1ccccc1)ON1C(=O)CCC1=O | 108 |
| OCC1OC(O)C(O)C(O)C1O (stereo unspecified) | 99.2 |
| COc1cc(OC)cc([C@@H]2[C@@H](C(C)=O)N3c4ccccc4C=C[C@@H]3C2(C#N)C#N)c1 | 92.8 |
| COC(=O)C1Cc2c([nH]c3ccccc23)C(c2ccc(F)cc2)N1 (stereo unspecified) | 100 |
| COc1cc(OC)cc(C2C(C#N)=C(N)Oc3n[nH]c(C)c32)c1 (stereo unspecified) | 92.9 |
| COc1cc(C(=O)Oc2ccc(Br)c3ccccc23)cc(OC)c1OC | 99.9 |
| COc1cccc(C2C(C(C)=O)=C(O)C(=O)N2CCc2cnc[nH]2)c1 (stereo unspecified) | 105 |
| Cc1ccc2[nH]c(C)c(CCNC(=O)c3cccc([N+](=O)[O-])c3)c2c1 | 90.6 |
| O=C(O)CNC(=O)c1ccc(Cl)cc1 | 108 |
| Cc1[nH]c2ccc(OC(F)(F)F)cc2c1CCNC(=O)c1cccnc1Cl | 91.6 |
| O=C(O)c1ccccc1-c1c2cc(I)c(=O)c(I)c-2oc2c(I)c(O)c(I)cc12 | 72.1 |
| CCOc1ccc(C(=O)Nc2c(C)nc3nc[nH]n3c2=O)cc1OCC | 86.1 |
| COc1ccc(C(=O)NCc2ccc(C)cc2)cc1OC | 93.3 |
| CCOC(=O)CNC(=O)c1cccc(C)c1 | 100 |
| CCCCOC(=O)NC1OC(COC(C)=O)C(OC(C)=O)C(OC(C)=O)C1OC(C)=O (stereo unspecified) | 98.1 |
| O=c1c(-c2ccc(O)cc2)coc2c(C3OC(CO)C(O)C(O)C3O)c(O)ccc12 (stereo unspecified) | 96.8 |
| COc1ccc(/C=C2\C(=O)Nc3cc(OC)c(OC)cc32)cc1O | 71.7 |
| C=CCNC(=O)Cc1c(C)n(C(=O)c2ccc(Cl)cc2)c2ccc(OC)cc12 | 101 |
| COc1ccc(OC)c(C2Nc3ccccc3NC3=C2C(=O)CC(c2ccc(Cl)cc2)C3)c1 (stereo unspecified) | 104 |
| COc1ccc(C(=O)Nc2nc3ccccc3s2)cc1OC | 89.8 |
| Cc1ccc(-n2c(SCC(=O)Nc3ccccc3C)nc3c(=O)[nH]cnc32)cc1 | 102 |
| Cc1c(Cl)cccc1NC(=O)CSc1nc2ccccc2c(=O)[nH]1 | 99.2 |
| CC(=O)NCC(=O)N(CCc1c[nH]c2ccccc12)C1(C(=O)Nc2c(C)cccc2C)CCCCC1 | 103 |
